In PubChem BioAssay AID493014 (National Center for Advancing Translational Sciences (NCATS), 2011):
Some of the results follow. The main result of the screen is listed elsewhere. These columns were measured beside it and carry no call. The list favours compounds with an active or inconclusive main result. The note in brackets gives the kind of curve behind each potency; many fits are weak.

Assay: qHTS Assay to Find Inhibitors of Chronic Active B-Cell Receptor Signaling
Conditions: ABC-DLBCL IkBa-CBG/CBR reporter, luminescence ratio (green luciferase fused to IkBa over red control in TMD8 lymphoma cells), 4 h
Method in brief: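 TMD8 human ABC-DLBCL cells with doxycycline-inducible IκBα–green luciferase fusion and unfused red luciferase, in 0.5% FBS medium; compounds up to 46 uM, 4 h at 37C. Green/red luminescence ratio, filter-overlap corrected, fitted to concentration-response curves.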

[1] = measured here: CBR red luminescence, cell number
[2] = measured here: IkBa-CBG green luminescence

SMILES | AC50 [1] | AC50 [2]
COc1ccc(OC)c2c1sc(=NC(=O)c1cccc(N3C(=O)CCC3=O)c1)n2C | 3.66 µM [rising, partial curve, poor fit] | 
CC1=CC(C)(C)n2c(O)c(N=N)c3c(C)ccc1c32 | 14.1 µM [rising, single point] | 
Cc1ccc2cc(C=O)c(N(C)C)nc2c1 | 0.259 µM [rising, partial curve, poor fit] | 
CC/C(=N\NC(=O)c1cccnc1)c1ccc2c(c1)OCCO2 | 17.8 µM [falling, partial curve, poor fit] | 
Cc1csc(NC(=O)c2cc3c(s2)-c2ccccc2OC3)n1 | 0.92 µM [falling, full curve] | 
C=CCOc1c(Br)cc(/C=N/NC(N)=O)cc1OC |  | 23.1 µM [falling, single point]
COc1ccc(-c2nc(N)n(C(=O)c3cccs3)n2)cc1 | 10 µM [falling, partial curve, poor fit] | 4.47 µM [rising, full curve, poor fit]
Cc1cc(C)n2c(SCc3cccs3)nnc2n1 | 1.46 µM [rising, full curve] | 
COc1ccc(CCn2c(-c3ccco3)nc3nc4ccccc4nc32)cc1 | 6.51 µM [rising, partial curve, poor fit] | 
O=C(CN1CCN(S(=O)(=O)c2ccc(Br)cc2)CC1)Nc1ccc2c(c1)OCO2 | 25.1 µM [falling, single point] | 
COc1cc(C2C(C#N)=C(N)N(c3ccc(F)cc3)C3=C2S(=O)(=O)CC3)ccc1O (stereo unspecified) | 35.5 µM [falling, single point] | 
O=C(NNC1CC(=O)N(c2ccc(Br)cc2)C1=O)c1ccccn1 (stereo unspecified) | 35.5 µM [falling, single point] | 
Cc1cc(N2C(=O)[C@@H]3[C@H](C2=O)[C@@H]2C[C@H]3C(Br)C2Br)no1 (stereo partly specified) | 11.2 µM [falling, partial curve, poor fit] | 
COc1ccc(-c2nn3c(-c4ccccc4)nnc3s2)cc1OC | 3.98 µM [rising, full curve] | 
Cc1cccc2nc(CSCc3ccco3)cn12 | 11.2 µM [rising, partial curve, poor fit] | 
C/C(Cn1cnc([N+](=O)[O-])n1)=N\NC(=O)c1ccccc1 | 11.6 µM [falling, partial curve] | 
Cc1ccc(NC(=O)CN2C(=O)S/C(=C/c3ccc(-c4cccc(C(=O)O)c4)o3)C2=O)cc1 | 10 µM [falling, partial curve] | 
Cn1cc(S(=O)(=O)CC(=O)Nc2ccc3c(c2)OCO3)c2ccccc21 | 32.6 µM [falling, single point] | 
CCN1CCN(Cc2ccc(NC(=O)c3ccc(C)c(NC(=O)c4c[nH]c5cc(C(F)(F)F)ccc5c4=O)c3)cc2C(F)(F)F)CC1 | 0.794 µM [falling, full curve, poor fit] | 
CCN1CCN(c2nc(-c3cccs3)nc3ccccc23)CC1 | 25.9 µM [falling, single point] | 
CCOC(=O)N1CCC(=NNC(=O)c2ccccc2F)CC1 | 8.2 µM [falling, partial curve] | 

SMILES | AC50 [1] | AC50 [2]
Cc1ccc(SCC(=O)O/N=C(\N)c2ccncc2)cc1 | 2.51 µM [rising, full curve, poor fit] | 
COc1ccc(S(=O)(=O)NCCc2csc3nc(-c4ccccc4)nn23)cc1OC |  | 11.2 µM [rising, partial curve, poor fit]
O=C(Nc1cccc(-c2cn3cccnc3n2)c1)c1ccc2c(c1)OCO2 | 15.8 µM [falling, partial curve] | 
COc1ccc(C2=NN(C(C)=O)C(c3cccs3)C2)cc1OC (stereo unspecified) |  | 11.2 µM [falling, partial curve]
CCOC(=O)c1ccc(-c2c(-c3ccccc3OC)oc3ccccc23)cc1F | 7.31 µM [rising, single point] | 
COc1cccc(Cl)c1NC(=O)N1CCN(c2ccnc3cc(Cl)ccc23)CC1 | 15.8 µM [falling, single point] | 
COC(=O)c1cc(-c2c(-c3cc(OC)c(OC)c(OC)c3)noc2C)cc([N+](=O)[O-])c1 | 10 µM [falling, single point] | 
CCc1ccc(-c2nc(NC(=O)c3ccc(OCC(=O)Nc4ccc(F)cc4)c(OC)c3)sc2C)cc1 | 16.4 µM [rising, partial curve, poor fit] | 
CCC(CO)NCC(O)COCc1ccc2c(c1)OCO2 (stereo unspecified) | 0.316 µM [rising, full curve, poor fit] | 
COc1cc(/C(C)=N/N2CCN(c3ccccc3OC)CC2)ccc1O | 6.31 µM [rising, full curve, poor fit] | 
Cc1ccc2c(CC(=O)OC3CCOC3=O)coc2c1 (stereo unspecified) | 12.6 µM [falling, partial curve, poor fit] | 
Cc1cc(C)n(-c2c(F)c(F)c(CN3CCCCC3)c(F)c2F)n1 | 6.51 µM [falling, single point] | 
CCCCN(CC)CCCNC(=O)CS(=O)(=O)Cc1nc(-c2cccc(OC)c2)oc1C | 20.6 µM [falling, partial curve, poor fit] | 
CCOc1cccc(C(=O)Nc2ccc3c(c2)OCCO3)c1 | 2.82 µM [falling, partial curve, poor fit] | 
C/C(=N/NC(=O)c1cccc(Br)c1)C1CC2CCC1C2 (stereo unspecified) | 14.1 µM [falling, partial curve, poor fit] | 
COc1ccc(Cl)cc1N1C(=O)C2CCCN2C1c1ccccc1F (stereo unspecified) | 7.31 µM [falling, partial curve, poor fit] | 
Cc1c(C(=O)N(Cc2ccccc2)C2CCS(=O)(=O)C2)oc2ccccc12 (stereo unspecified) | 20 µM [falling, single point] | 
Cc1cc(C)c(S(=O)(=O)N2CCCOC2CNC(=O)C(=O)NCc2cccnc2)c(C)c1 (stereo unspecified) | 10 µM [rising, partial curve, poor fit] | 
O=C(Nc1nc2ccccc2[nH]1)c1ccccc1O | 0.355 µM [falling, full curve] | 3.98 µM [rising, single point]
CCOC(=O)Cn1c(=O)n(Cc2ccco2)c(=O)c2ccc(C(=O)NC3CCCC3)cc21 | 29.1 µM [falling, single point] | 0.461 µM [rising, full curve]
CCN(CC(=O)Nc1ccccc1C(F)(F)F)C(=O)c1oc2ccc(OC)cc2c1C | 29.1 µM [rising, single point] | 

SMILES | AC50 [1] | AC50 [2]
CCN(CC)CCCNc1nc2ccccc2c2nc(-c3ccncc3)nn12 | 15.8 µM [falling, single point] | 
O=C(NC(=O)c1ccccc1Cl)C(=O)Nc1ccc(Cl)cc1 | 0.398 µM [falling, full curve, poor fit] | 
N#C/C(=C(/O)c1ccc(Cl)cc1)c1nc2ccccc2[nH]1 | 0.891 µM [falling, full curve] | 
COCc1cc(C)nc(SCC(=O)Oc2ccccc2)c1C#N | 3.55 µM [rising, full curve] | 
CN1CCN(S(=O)(=O)c2cccc(C(=O)N(c3ccccn3)C3CCCCC3)c2)CC1 | 22.4 µM [falling, single point] | 
CCOC(=O)c1cnc2ccc(OCC)cc2c1NCc1ccccc1 | 25.9 µM [falling, single point] | 
COc1cc2c(cc1OC)C(C)N(C(=O)c1c(-c3ccccc3)noc1C)CC2 (stereo unspecified) | 35.5 µM [falling, single point] | 
FC(F)(F)c1cccc(NC(=S)NNC(=S)Nc2ccc(Cl)cc2)c1 | 2.51 µM [rising, partial curve, poor fit] | 
Cc1ccc(CNc2nc3ccccc3n3cnnc23)cc1 | 0.13 µM [rising, full curve, poor fit] | 
CCCCNC(=S)N(C)/N=C/c1ccccc1C(=O)O | 0.58 µM [falling, full curve, poor fit] | 
CN(C)S(=O)(=O)c1ccc(C(=O)NCCOc2ccccc2)cc1 | 16.4 µM [rising, partial curve, poor fit] | 
CC1(C)Cc2c(c(N3CCOCC3)nc3sc(-c4ccc(C(=O)O)o4)c(N)c23)CO1 | 29.1 µM [falling, partial curve, poor fit] | 
COc1ccc(Cc2nc(-c3cccs3)no2)cc1 | 3.98 µM [rising, full curve, poor fit] | 
O=C(COc1ccccc1[N+](=O)[O-])N1CCC(Cc2ccccc2)CC1 | 10 µM [falling, partial curve] | 
CCC(C)(C)c1nnc(NC(=O)c2cccc([N+](=O)[O-])c2)s1 | 2.31 µM [rising, partial curve] | 
Cc1ccccc1NC(=O)C1Cc2ccccc2CN1C(=O)c1ccco1 (stereo unspecified) | 1.58 µM [falling, partial curve, poor fit] | 
O=C(COC(=O)CNC(=O)c1ccccc1)Nc1ccc(Cl)cn1 | 6.51 µM [rising, single point] | 
CCOc1ccccc1C(=O)Nc1cccc(-c2ccc(N3CCOCC3)nn2)c1 | 18.4 µM [falling, single point] | 
CC(C)OCC(O)CSc1ccccn1 (stereo unspecified) | 17.8 µM [rising, single point] | 
Cn1c(O)c(N=Nc2nc(-c3ccccc3)cs2)c2ccccc21 | 0.326 µM [falling, full curve] | 
CC1=NN(c2ccccc2)C(=O)C1C=Nc1ccccc1O (stereo unspecified) | 1.41 µM [falling, full curve, poor fit] | 

Reformatted: 13 of the compounds above
SMILES	AC50 [1]	AC50 [2]
COc1cc2c(cc1OC)C(C)N(C(=O)c1c(-c3ccccc3)noc1C)CC2 (stereo unspecified)	35.5 µM [falling, single point]	
FC(F)(F)c1cccc(NC(=S)NNC(=S)Nc2ccc(Cl)cc2)c1	2.51 µM [rising, partial curve, poor fit]	
Cc1ccc(CNc2nc3ccccc3n3cnnc23)cc1	0.13 µM [rising, full curve, poor fit]	
CCCCNC(=S)N(C)/N=C/c1ccccc1C(=O)O	0.58 µM [falling, full curve, poor fit]	
CN(C)S(=O)(=O)c1ccc(C(=O)NCCOc2ccccc2)cc1	16.4 µM [rising, partial curve, poor fit]	
CC1(C)Cc2c(c(N3CCOCC3)nc3sc(-c4ccc(C(=O)O)o4)c(N)c23)CO1	29.1 µM [falling, partial curve, poor fit]	
COc1ccc(Cc2nc(-c3cccs3)no2)cc1	3.98 µM [rising, full curve, poor fit]	
O=C(COc1ccccc1[N+](=O)[O-])N1CCC(Cc2ccccc2)CC1	10 µM [falling, partial curve]	
CCC(C)(C)c1nnc(NC(=O)c2cccc([N+](=O)[O-])c2)s1	2.31 µM [rising, partial curve]	
Cc1ccccc1NC(=O)C1Cc2ccccc2CN1C(=O)c1ccco1 (stereo unspecified)	1.58 µM [falling, partial curve, poor fit]	
O=C(COC(=O)CNC(=O)c1ccccc1)Nc1ccc(Cl)cn1	6.51 µM [rising, single point]	
CCOc1ccccc1C(=O)Nc1cccc(-c2ccc(N3CCOCC3)nn2)c1	18.4 µM [falling, single point]	
CC(C)OCC(O)CSc1ccccn1 (stereo unspecified)	17.8 µM [rising, single point]	
